The RNAGym collection of RNA variant scans (doi:10.1126/science.aae0568)
Variants at the background level are over-represented here.

B1: tRNA (parent)
chain: GUUCCGUUGGCGUAAUGGUAACGCGUCUCCCUCCUAAGGAGAAGACUGCGGGUUCGAGUCCCGUACGGAACG

Variants of: B1
Experiment: yeast fitness relative to wild type (ratio to wild type); higher = fitter; tRNA-Arg(CCU), competitive growth, 37 C, YPD
In short: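 A pool of Saccharomyces cerevisiae strains, each with a tRNA-Arg(CCU) gene variant at the native genomic locus, was competed in YPD at 37°C for 24 hours across six parallel replicates. The variants had been chemically synthesised at a 3% per-site mutation rate over 69 sites, and gene amplicons before and after competition were read by 100-nucleotide paired-end sequencing. Darwinian fitness relative to wild type rested on changes in genotype frequencies. Genotypes required ≥ 100 starting reads, and estimates < 0.5 were set to 0.5.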

GUUCCGUUGGCAUAGUGGUAACGCGUCUCCCUCCUAAGGAGACGACUGCGGGUUCGAGUCGCGUACGGAACG [G12A A15G A43C C61G] and GUUCCGUUGGCAUAUUGGUAACGCGUCUCCCUCCUAAGGAGAAGACUGCGGGUUCGAGUCCCGUACAGAGCG [G12A A15U G67A A70G] cannot be ordered by yeast fitness: at most 0.5 for the first, at most 0.5 for the second.

First: GUUCCGUUGGCAUAAUGGUCACGCGUCUCCCUCCUAAGGAGAAGACUGCGGGUUCGAGUCCCGUUCGGAACG [G12A A20C A65U]
Second: GUUCCGUUGGCAUAAUGGUCACGCGUCUCCCACGUAAGGAGAAGACUGCGGGUUCGCGUCCCGUAUGGAACG [G12A A20C U32A C34G A57C C66U]
The yeast fitness of the first is higher: 0.57 for the first, at most 0.5 for the second.

Compared with GUUCCGUUGGCAUAAUGGUGACGCGUCACCCUCCUAAGGAGAAGACUGCGGGUUAAAGUCCCGUACGGAACG [G12A A20G U28A C55A G56A], GUUCCGUUGGCAUAAUGGUGACGCGUCACCCUCCUAAGGAGAAGACUGCGGGUUAAAGUCCCGUGCGGAACG [G12A A20G U28A C55A G56A A65G] is lower in yeast fitness: 0.537 for the first, at most 0.5 for the second.

GUUCCGUUGGCAUAAUGGUUACGCGUCUCCCUCCUAAGGAGAAGACUGCGGGUUUGAGUCUCGUACGGAACG [G12A A20U C55U C61U] and GUUCCGUUGGCAUAAUGGUAGCGCGUCUCCCUCCUAAGGAGAAGAGUGCGAGUUCGAGUCCCGUACCGAACG [G12A A21G C46G G51A G67C] cannot be ordered by yeast fitness: at most 0.5 for the first, at most 0.5 for the second.

GUUCCGUUGGCAUAAUGGUAUCGCGUCUCCCUCCUAAGGAGAAGACUGCGGGUUCGAGUCCCGUAGGGAACG [G12A A21U C66G] and GUUCCGUUGGCAUAAUGGUAACGCGUCUCCCUCCUCCGGAGAAGACUGCGGGGUCGAGUCCCGUACGGACCG [G12A A36C A37C U53G A70C] cannot be ordered by yeast fitness: at most 0.5 for the first, at most 0.5 for the second.

GUUCCGUUGGCAUAAUGGUAACGCGUCUCCCUCCUAAGGAGGAGACUGCGGGUUCGAGUCGUGUACGGAACG [G12A A42G C61G C62U] and GUUCCGUUGGCAUAAUGGUAACGCGUCUCCCUCCUAAGGAGAUGACUGCGGGUUCGAGUUCCGUACGGUACG [G12A A43U C60U A69U] cannot be ordered by yeast fitness: at most 0.5 for the first, at most 0.5 for the second.

Compared with GUUCCGUUGGCAUAAUGGUAACGCGUCUCCCUCCUAAGGAGAAGCCUGCUGGUUCGAGUCCCGUACGGAACG [G12A A45C G50U], GUUCCGUUGGCAUAAUGGUAACGCGUCUCCCUCCUAAGGAGAAGGCUGCGGGUUCGAGUCCCGUACGGAACG [G12A A45G] is higher in yeast fitness: at most 0.5 for the first, 0.953 for the second.

Going from GUUCCGUUGGCAUAAUGGUAACGCGUCUCCCUCCUAAGGAGAAGACUGCGGGUUCGAGUCCCGUUCGGAACG [G12A A65U] to GUUCCGUUGGCAUAAUGGUAACGAGUCUCCCUCCUAAGGAGAAGGCUGCAGGUUCGAGUCCCGUACGGAACG [G12A C24A A45G G50A], the yeast fitness falls from 0.861 to at most 0.5.

GUUCCGUUGGCAUAAUGGUAACGAGUCUCCCUCCUAAGGAGAAGACUGCGGGUUCGGGUCCCGUACGGAACG [G12A C24A A57G] and GUUCCGUUGGCAUAAUGGUAACGAGUCUCCCUCAUAAGGAGAAGACUGAGGGUUCGAGUCCCUUACAGAACG [G12A C24A C34A C49A G63U G67A] cannot be ordered by yeast fitness: at most 0.5 for the first, at most 0.5 for the second.

GUUCCGUUGGCAUAAUGGUAACGGGUCUCCCUCCUAAGGCGACGAUUGCGGGUUCGAGUCCCGUACGCUACG [G12A C24G A40C A43C C46U G68C A69U] and GUUCCGUUGGCAUAAUGGUAACGGGUCUCCCUCCUAAGGAGAAGACAGGGGGUUCGAGUCCCGUACGGCACG [G12A C24G U47A C49G A69C] cannot be ordered by yeast fitness: at most 0.5 for the first, at most 0.5 for the second.

GUUCCGUUGGCAUAAUGGUAACGUGUCUCCCUCCUAAGGAGAAGACUGCGGGUUCGAGUCCCGUCCGGAACG [G12A C24U A65C] and GUUCCGUUGGCAUAAUGGUAACGCGUAUCCCUCCUAAGGAGAAGUCUGCGGGUUCGAGUCCCGUACCGAACG [G12A C27A A45U G67C] cannot be ordered by yeast fitness: at most 0.5 for the first, at most 0.5 for the second.

First: GUUCCGUUGGCAUAAUGGUAACGCGUGUUCCUCCUAUGGAGAAGACUGCGGGUUCGAGUCCCGUACGGAACG [G12A C27G C29U A37U]
Second: GUUCCGUUGGCAUAAUGGUAACGCGUUUCGCUCCUAAGGAGAAGACUGCGGGUUUGCGUCCCGUACGGAACG [G12A C27U C30G C55U A57C]
The yeast fitness of the first is lower: at most 0.5 for the first, 0.547 for the second.

GUUCCGUUGGCAUAAUGGUAACGCGUCUACCUCCUAAGGAGAAGACUGCGGGUUCGUGUCCCGUACGGAACG [G12A C29A A57U] and GUUCCGUUGGCAUAAUGGUAACGCGUCUGCCUCCUAAGGAGAAGACUACGGGUUCGAGUCCCGUACGGAUCG [G12A C29G G48A A70U] cannot be ordered by yeast fitness: at most 0.5 for the first, at most 0.5 for the second.

GUUCCGUUGGCAUAAUGGUAACGCGUCUUCCUCCUAAGGAGAAGAGUGCGGGUUCAAGUACGGUAAGGAACG [G12A C29U C46G G56A C60A C62G C66A] and GUUCCGUUGGCAUAAUGGUAACGCGUCUCCGUCCUAAGGAGAAGGCUGCGGGUUCUAGUCCCGUACGGAACG [G12A C31G A45G G56U] cannot be ordered by yeast fitness: at most 0.5 for the first, at most 0.5 for the second.

GUUCCGUUGGCAUAAUGGUAACGCGUCUCCCUGCUAACGAGAAGACUGCGGGUUCGUGUCCCGUACGGAACG [G12A C33G G38C A57U] and GUUCCGUUGGCAUAAUGGUAACGCGUCUCCCUGCCAAGGAGAAGACUGCGGGUUCGAGACCCGUACGGUACG [G12A C33G U35C U59A A69U] cannot be ordered by yeast fitness: at most 0.5 for the first, at most 0.5 for the second.

GUUCCGUUGGCAUAAUGGUAACGCGUCUCCCUUCUCAGGAGAAGACUGCGUGUUCGGGUCCCGUACGGGACG [G12A C33U A36C G51U A57G A69G] and GUUCCGUUGGCAUAAUGGUAACGCGUCUCCCUCAUAAGGAGAAGACUGCGUGUUCGAAUCCCUUACGGAACG [G12A C34A G51U G58A G63U] cannot be ordered by yeast fitness: at most 0.5 for the first, at most 0.5 for the second.

GUUCCGUUGGCAUAAUGGUAACGCGUCUCCCUCGUAAGGAGAAGACUGCGGGUUCGAGUCCCGUACGGAUCG [G12A C34G A70U] and GUUCCGUUGGCAUAAUGGUAACGCGUCUCCCUCCUAAGGAGAAGACUGAGGGUUCGAGUGCCGUACGGAACG [G12A C49A C60G] cannot be ordered by yeast fitness: at most 0.5 for the first, at most 0.5 for the second.

Going from GUUCCGUUGGCAUAAUGGUAACGCGUCUCCCUCCUAAGGAGAAGACUGCGGGUUCGAGUCUCGUACGGAACG [G12A C61U] to GUUCCGUUGGCAUAAUGGUAACGCGUCUCCCUCCUAAGGAGAAGACUGCGGGUUCGAGUCUCGAACGGGACG [G12A C61U U64A A69G], the yeast fitness falls from 0.924 to at most 0.5.

In the case of GUUCCGUUGGCAUAAUGGUAACGCGUCUCCCUCCUAAGGAGAAGACUGCGGGUUCGAGUCCCGUAAAGAACG [G12A C66A G67A], the yeast fitness is reported as at most 0.5.
